The values below come from article PMC11472053, “Structural basis of DNA recognition by BEN domain proteins reveals a role for oligomerization in unmethylated DNA selection by BANP” (Nucleic Acids Research, 2024).

For data set [1], the target named is T1, BANP full-length WT (human) (UniProt Q8N9N5).
T1 sequence (looked up): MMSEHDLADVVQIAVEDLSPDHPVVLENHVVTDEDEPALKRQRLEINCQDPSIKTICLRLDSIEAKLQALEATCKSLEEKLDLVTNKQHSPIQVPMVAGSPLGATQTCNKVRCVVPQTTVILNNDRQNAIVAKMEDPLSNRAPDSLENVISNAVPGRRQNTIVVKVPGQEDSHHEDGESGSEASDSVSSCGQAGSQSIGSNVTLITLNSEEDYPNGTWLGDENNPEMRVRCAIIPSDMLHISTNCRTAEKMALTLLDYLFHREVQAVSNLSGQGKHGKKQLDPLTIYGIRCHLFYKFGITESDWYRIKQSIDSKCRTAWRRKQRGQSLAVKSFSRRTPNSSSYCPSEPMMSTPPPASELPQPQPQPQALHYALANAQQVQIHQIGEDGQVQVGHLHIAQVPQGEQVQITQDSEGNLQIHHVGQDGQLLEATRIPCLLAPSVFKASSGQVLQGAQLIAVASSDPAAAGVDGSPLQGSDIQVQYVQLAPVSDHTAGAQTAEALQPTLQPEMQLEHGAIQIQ
The data set is described as follows: EMSA. As to conditions: EMSA: 20 mM Tris pH 7.0, 200 mM NaCl, 2 mM DTT, 4 C, 1.2% agarose in TAE, recombinant protein, residues 1-519, protein details: His-SUMO or His-MBP, cleaved. (In general: Mobility shift assays separate free from complexed probe on a gel.)

In another data set the target is T2, NACC1 BEN R468A (human) (UniProt Q96RE7).
T2 sequence (looked up): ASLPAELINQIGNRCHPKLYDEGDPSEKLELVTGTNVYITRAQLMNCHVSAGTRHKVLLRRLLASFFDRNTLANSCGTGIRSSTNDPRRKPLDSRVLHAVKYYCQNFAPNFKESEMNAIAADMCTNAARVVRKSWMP
Put plainly: ITC. As to conditions: Kd N.A., text: <5% of WT affinity; ITC: 20 mM Tris pH 7.5, 200 mM NaCl, 2 mM beta-mercaptoethanol, 20 C; recombinant protein; residues 341-477; protein details: His-SUMO or His-MBP, cleaved.

The comparison behind a weaker result is the experiment's own reference, which may not be listed here. Where a protein sequence is shown, tags need not be part of it. For part of these data: For at least one entry, the source does not settle the construct or the ends of the probe. For part of these data: At least one verdict was read from the data and is not stated in words by the source.

Consider ATCTCGCGAGAT (double strand) [12-CGCG], for which the binding result in data set [1] is “binds”. On to ATTACATGTAAT (double strand) [12-CATG], for which, in the data set with NACC1 BEN R468A (human), the binding result is “binds more weakly”. Turning to ATCTCGCGAGAT (double strand) [12-mCGCG], the binding result in data set [1] (5-methyl-C at position 5 of each strand (palindrome; called hemi-methylated, one CpG methylated)) was “binds more weakly”.
